Assay results taken from patent publication USRE41151E1, “Protected forms of pharmacologically active agents and uses thereof” (Medinox, Inc., priority 2000, dated 2010).

Assay: Plasma pharmacokinetics of naproxen after oral administration in rats
Format: in vivo, rat

Cmax (male, Sprague-Dawley, rat, plasma, po, 2 mg/kg): 7770 ± 4130 ng/mL | AUCall (naproxen in plasma, oral, 2 mg/kg (amount of naproxen in dose), rats): 50 ± 6 μg * ht/mL
Compound: COc1ccc2cc([C@H](C)C(=O)O)ccc2c1 [Naproxen]
